Assay results: patent US10602680B2, “Method of internal seed disinfection by combining seed priming with vacuum infiltration” (priority 2014, dated 2020)

Columns and labels:
[1] = test system: Acidovorax avenae subsp. citrulli; test: 10 minute soak of externally infected diploid watermelon seeds in antibiotic solutions; type: in vivo; details: any dose (100 ppm, 250 ppm, 500 ppm)
Method: The effectiveness of using an antibiotic solution combined with matrix priming for disinfecting triploid watermelon seeds internally infected with Acidovorax avenae subsp. citrulli has been tested. In order to screen for effective antibiotics, diploid watermelon seeds were obtained which were externally infected with Acidovorax avenae subsp. citrulli. […] Infected seeds were soaked for 10 minutes in antibiotic solutions of 100 ppm, 250 ppm, and 500 ppm of the above antibiotics. Dosage was chosen based on information reported by Layne Wade (21st Annual Tomato Disease Workshop, Asheville, N.C., November 2006) which stated that the MIC (minimum inhibitory concentration) of Kasugamycin on Acidovorax avenae subsp. citrulli is greater than 100 ppm.

[2] = test system: triploid watermelon seeds; details: in vivo
Method: Step 110 involves choosing which species of seed will be sought to be disinfected. […] Thus, in step 130, a phytotoxicty screening is carried out on the chosen seeds using the chosen treatment. […] For example, the inventors screened the antibiotic Oxytetracycline using the method of adding chemicals to the water used in matrix priming (Eastin, J. A., 2000, U.S. Pat. No. 6,076,301) and the method of the present invention. Water containing 500 ppm of Oxytetracycline was used to prime triploid watermelon seeds using matrix priming. Further, the same seed was treated with vacuum infiltration using 500 ppm Oxytetracycline solutions for 6 hours, which was followed by a matrix priming using water. For a control, seed of the same lot was treated using vacuum infiltration with water, followed by matrix priming using water. Also, untreated seeds were preserved as an additional control.

O=C(O)c1cn(C2CC2)c2cc(N3CCNCC3)c(F)cc2c1=O [Ciprofloxacin]
elimination of bacteria on seeds [1]: not effective | phytotoxicity [2]: phytotoxic
